Reference: article PMC9066866

Molecular target: Triosephosphate isomerase 1 (TPI1) (human (endogenous in MDA-MB-231 and T47D)) (UniProt P60174)
Assay: affinity purification with mass spectrometry; IP of TPI1 (IgG as control) from MDA-MB-231 lysate, silver staining, bands subjected to mass spectrometry

Sequestosome-1 (SQSTM1)/P62 (from UniProt Q13501 1-440)
binding: binds

Results are given in words; binding and its absence hold for the method and conditions named. Binding seen in cells or lysates may run through a third protein. Here binding means that the protein was enriched with, or labelled near, the bait; the list need not be complete.
